# Measured values taken from the supplement of paper PMC8728848.
# This is one part of the list.
# Tests used:
# Test in all cases: glycan array binding signal (z-score within array); higher = stronger binding
# Details in all cases: glycan notation: IUPAC condensed, linker removed
# [1] = system: Neu5Ac(a2-3)Gal(b1-3)GlcNAc(b1-2)[Neu5Ac(a2-3)Gal(b1-3)GlcNAc(b1-4)]Man(a1-6)[Neu5Ac(a2-3)Gal(b1-3)GlcNAc(b1-2)Man(a1-3)]Man(b1-4)GlcNAc(b1-4)GlcNAc
# How it was run: (§1)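 Arrays were curated from the Consortium for Functional Glycomics database, 3228 in total, and kept only where the protein sequence was available. Binding is expressed as a within-array Z-score. This score was averaged across arrays of the same protein sequence at different concentrations or buffers and across linkers, and negative values can be read as non-binding.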
# [2] = system: Neu5Ac(a2-3)Gal(b1-3)GlcNAc(b1-3)Gal(b1-3)GlcNAc
# How it was run: as §1
# [3] = system: Neu5Ac(a2-3)Gal(b1-3)GlcNAc(b1-3)Gal(b1-4)GlcNAc
# How it was run: as §1
# [4] = system: Neu5Ac(a2-3)Gal(b1-3)GlcNAc(b1-3)GalNAc
# How it was run: as §1
# [5] = system: Neu5Ac(a2-3)Gal(b1-3)GlcNAc(b1-6)GalNAc
# How it was run: as §1
# [6] = system: Neu5Ac(a2-3)Gal(b1-3)GlcNAc6S
# How it was run: as §1
# [7] = system: Neu5Ac(a2-3)Gal(b1-3)GlcNAc
# How it was run: as §1
# [8] = system: Neu5Ac(a2-3)Gal(b1-3)[Fuc(a1-4)]GlcNAc(b1-3)Gal(b1-3)[Fuc(a1-4)]GlcNAc
# How it was run: as §1
# [9] = system: Neu5Ac(a2-3)Gal(b1-3)[Fuc(a1-4)]GlcNAc(b1-3)Gal(b1-4)[Fuc(a1-3)]GlcNAc
# How it was run: as §1
# [10] = system: Neu5Ac(a2-3)Gal(b1-3)[Fuc(a1-4)]GlcNAc
# How it was run: as §1
# [11] = system: Neu5Ac(a2-3)Gal(b1-3)[GlcNAc(b1-6)]GalNAc
# How it was run: as §1
# [12] = system: Neu5Ac(a2-3)Gal(b1-3)[Neu5Ac(a2-6)]GalNAc
# How it was run: as §1
# [13] = system: Neu5Ac(a2-3)Gal(b1-3)[Neu5Ac(a2-6)]GlcNAc(b1-3)[Fuc(a1-3)[Gal(b1-4)]GlcNAc(b1-6)]Gal(b1-4)Glc
# How it was run: as §1
# [14] = system: Neu5Ac(a2-3)Gal(b1-3)]Neu5Ac(a2-3)Gal(b1-4)]GlcNAc
# How it was run: as §1
# [15] = system: Neu5Ac(a2-3)Gal(b1-4)GlcNAc(b1-2)Man(a1-3)[GlcNAc(b1-4)][Neu5Ac(a2-3)Gal(b1-4)GlcNAc(b1-2)Man(a1-6)]Man(b1-4)GlcNAc(b1-4)GlcNAc
# How it was run: as §1
# [16] = system: Neu5Ac(a2-3)Gal(b1-4)GlcNAc(b1-2)Man(a1-3)[Neu5Ac(a2-3)Gal(b1-4)GlcNAc(b1-2)Man(a1-6)]Man(b1-4)GlcNAc(b1-4)GlcNAc
# How it was run: as §1
# [17] = system: Neu5Ac(a2-3)Gal(b1-4)GlcNAc(b1-2)Man(a1-3)[Neu5Ac(a2-3)Gal(b1-4)GlcNAc(b1-2)Man(a1-6)]Man(b1-4)GlcNAc(b1-4)[Fuc(a1-6)]GlcNAc
# How it was run: as §1
# [18] = system: Neu5Ac(a2-3)Gal(b1-4)GlcNAc(b1-2)Man(a1-3)[Neu5Ac(a2-6)Gal(b1-4)GlcNAc(b1-2)Man(a1-6)]Man(b1-4)GlcNAc(b1-4)GlcNAc
# How it was run: as §1
# [19] = system: Neu5Ac(a2-3)Gal(b1-4)GlcNAc(b1-2)Man
# How it was run: as §1
# [20] = system: Neu5Ac(a2-3)Gal(b1-4)GlcNAc(b1-2)[Neu5Ac(a2-3)Gal(b1-4)GlcNAc(b1-4)]Man(a1-3)[GlcNAc(b1-4)][Neu5Ac(a2-3)Gal(b1-4)GlcNAc(b1-2)[Neu5Ac(a2-3)Gal(b1-4)GlcNAc(b1-6)]Man(a1-6)]Man(b1-4)GlcNAc(b1-4)GlcNAc
# How it was run: as §1
# [21] = system: Neu5Ac(a2-3)Gal(b1-4)GlcNAc(b1-2)[Neu5Ac(a2-3)Gal(b1-4)GlcNAc(b1-4)]Man(a1-3)[GlcNAc(b1-4)][Neu5Ac(a2-3)Gal(b1-4)GlcNAc(b1-4)Man(a1-6)]Man(b1-4)GlcNAc(b1-4)GlcNAc
# How it was run: as §1
# [22] = system: Neu5Ac(a2-3)Gal(b1-4)GlcNAc(b1-2)[Neu5Ac(a2-3)Gal(b1-4)GlcNAc(b1-6)]Man(a1-6)[Neu5Ac(a2-3)Gal(b1-4)GlcNAc(b1-2)Man(a1-3)][GlcNAc(b1-4)]Man(b1-4)GlcNAc(b1-4)GlcNAc
# How it was run: as §1
# [23] = system: Neu5Ac(a2-3)Gal(b1-4)GlcNAc(b1-3)Gal(b1-3)GlcNAc
# How it was run: as §1
# [24] = system: Neu5Ac(a2-3)Gal(b1-4)GlcNAc(b1-3)Gal(b1-4)GlcNAc(b1-2)Man(a1-3)[Neu5Ac(a2-3)Gal(b1-4)GlcNAc(b1-3)Gal(b1-4)GlcNAc(b1-2)Man(a1-6)]Man(b1-4)GlcNAc(b1-4)GlcNAc
# How it was run: as §1
# [25] = system: Neu5Ac(a2-3)Gal(b1-4)GlcNAc(b1-3)Gal(b1-4)GlcNAc(b1-3)Gal(b1-4)GlcNAc(b1-2)Man(a1-3)[Neu5Ac(a2-3)Gal(b1-4)GlcNAc(b1-3)Gal(b1-4)GlcNAc(b1-3)Gal(b1-4)GlcNAc(b1-2)Man(a1-6)]GalNAc
# How it was run: as §1
# [26] = system: Neu5Ac(a2-3)Gal(b1-4)GlcNAc(b1-3)Gal(b1-4)GlcNAc(b1-3)Gal(b1-4)GlcNAc
# How it was run: as §1
# [27] = system: Neu5Ac(a2-3)Gal(b1-4)GlcNAc(b1-3)Gal(b1-4)GlcNAc(b1-3)GalNAc
# How it was run: as §1
# [28] = system: Neu5Ac(a2-3)Gal(b1-4)GlcNAc(b1-3)Gal(b1-4)GlcNAc(b1-3)[Neu5Ac(a2-3)Gal(b1-4)GlcNAc(b1-3)Gal(b1-4)GlcNAc(b1-6)]GalNAc
# How it was run: as §1
# [29] = system: Neu5Ac(a2-3)Gal(b1-4)GlcNAc(b1-3)Gal(b1-4)GlcNAc(b1-6)[Gal(b1-3)]GalNAc
# How it was run: as §1
# [30] = system: Neu5Ac(a2-3)Gal(b1-4)GlcNAc(b1-3)Gal(b1-4)GlcNAc
# How it was run: as §1
# [31] = system: Neu5Ac(a2-3)Gal(b1-4)GlcNAc(b1-3)Gal(b1-4)[Fuc(a1-3)]GlcNAc
# How it was run: as §1
# [32] = system: Neu5Ac(a2-3)Gal(b1-4)GlcNAc(b1-3)GalNAc
# How it was run: as §1
substance,measurement,setting,value
MpAFP RI GFP (Marinomonas primoryensis),glycan array binding signal (z-score),[1],0.633
same,glycan array binding signal (z-score),[2],-0.728
same,glycan array binding signal (z-score),[3],-0.468
same,glycan array binding signal (z-score),[4],-0.699
same,glycan array binding signal (z-score),[5],-0.526
same,glycan array binding signal (z-score),[6],-0.213
same,glycan array binding signal (z-score),[7],-0.479
same,glycan array binding signal (z-score),[8],0.153
same,glycan array binding signal (z-score),[9],-0.14
same,glycan array binding signal (z-score),[10],-0.138
same,glycan array binding signal (z-score),[11],-0.527
same,glycan array binding signal (z-score),[12],-0.687
same,glycan array binding signal (z-score),[13],0.017
same,glycan array binding signal (z-score),[14],-0.556
same,glycan array binding signal (z-score),[15],-0.405
same,glycan array binding signal (z-score),[16],-0.33
same,glycan array binding signal (z-score),[17],-0.002
same,glycan array binding signal (z-score),[18],0.762
same,glycan array binding signal (z-score),[19],1.94
same,glycan array binding signal (z-score),[20],-0.808
same,glycan array binding signal (z-score),[21],-0.276
same,glycan array binding signal (z-score),[22],-0.012
same,glycan array binding signal (z-score),[23],-0.764
same,glycan array binding signal (z-score),[24],0.015
same,glycan array binding signal (z-score),[25],1.64
same,glycan array binding signal (z-score),[26],-0.621
same,glycan array binding signal (z-score),[27],-0.471
same,glycan array binding signal (z-score),[28],0.247
same,glycan array binding signal (z-score),[29],-0.297
same,glycan array binding signal (z-score),[30],0.123
same,glycan array binding signal (z-score),[31],-0.446
same,glycan array binding signal (z-score),[32],-0.519

# Shown with bars between the fields: entries from further up.
substance | measurement | setting | value
MpAFP RI GFP (Marinomonas primoryensis) | glycan array binding signal (z-score) | [20] | -0.808
same | glycan array binding signal (z-score) | [23] | -0.764
